Data as given in paper doi:10.1101/2022.11.11.516191.
No constants are given. Whether binding was seen depends on the method and setting. Some binding calls cover weakened binding; strength is not graded here. One block for each binder: values may come before it.

Key:
[1] = target: T1, 14-3-3 β 130nY (human), P31946; test: crystal structure; settings: remark: other sources report otherwise
T1 chain: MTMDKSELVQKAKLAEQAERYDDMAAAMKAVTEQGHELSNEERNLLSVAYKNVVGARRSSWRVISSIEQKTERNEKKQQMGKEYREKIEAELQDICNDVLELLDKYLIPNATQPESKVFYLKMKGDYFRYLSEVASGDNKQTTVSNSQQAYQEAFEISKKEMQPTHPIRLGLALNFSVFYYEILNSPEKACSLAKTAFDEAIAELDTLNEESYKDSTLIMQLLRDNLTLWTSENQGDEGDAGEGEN

[2] = target: T2, 14-3-3 β 213nY (human), P31946; test: crystal structure; settings: remark: other sources report otherwise
T2 chain: T1 chain

binding [1]: binds
B1: 14-3-3 β 130nY, P31946 1-246 (natural protein)
chain: T1 chain
modifications: here or on the partner: 3-nitro-tyrosine at 130 (β-isoform numbering); 3-nitro-tyrosine at 130 (β-isoform numbering)

binding [2]: binds
B2: 14-3-3 β 213nY, P31946 1-246 (natural protein)
chain: T1 chain
modifications: here or on the partner: 3-nitro-tyrosine at 213 (β-isoform numbering); 3-nitro-tyrosine at 213 (β-isoform numbering)
